At least one peptide structure holds a part that was inferred or is arguable (an end, a ring closure or a residue). No end group written: not given here.
Test system: hypox rats
Assay: Biological assay for growth-promoting activity: net weight gain of hypophysectomized rats
Format: in vivo
Settings: conclusion from the hypox rat studies with antibodies of immunized pigs
Procedure: Hypox rats are injected subcutaneously with pST (5 ug/day) with or without antibody (2 mg/day) for 5 consecutive days and the net weight gain is recorded. Immune antibodies are prepared from two pigs that had been immunized with pST (54-95) and the control antibody is prepared from a pooled sera of non-immunized pigs. *,p<0.05; **,p<0.01.
In a study similar to that shown in FIG. 3, except antibody is injected at a dose of 0.5 mg/day and for a longer period of time. *,p<0.05; **,p<0.01; ***,p<0.001.
Hypophysectomized female Sprague-Dawley rats, 21 days of age and weighing 50-64 g, are obtained from Taconic Farm, Germantown, N.Y. and used to assay for Growth Hormone (GH). Female crossbred swine (Duroc x Yorkshire x Hampshire), 3-5 months of age, weighing 30-50 kg, are obtained from the breeding colony of American Cyanamid Co., Princeton, N.J. and used for the production of antibodies.
Hypophysectomized rats are randomly allocated to groups of eight. Antibody mixed with 5 ug pST at room temperature for 1 hour is administered subcutaneously in the neck region of experimental rats. All animals are treated daily for various periods of time and their growth is recorded as net weight gain. […]
The growth enhancing effect of these antibodies are evaluated in hypox rats. […] Net weight gains are recorded. […]

Sequence: FSETIPAPTGKDEAQQRSDVELLRFSLLLIQSWLGPVQFLSR [pST (54-95)]
- ability of the peptide to induce antibodies in pigs that enhance pST activity: renders pigs able to produce antibodies capable of enhancing pST activity

From patent US5912325A, “Biologically active porcine somatotropin polypeptides and methods of using the same” (American Cyanamid Company, priority 1994, dated 1999)
